# Results from patent US9783585B2, “Compositions and methods for increasing the expression and signalling of proteins on cell surfaces” (JOHNS HOPKINS UNIVERSITY, priority 2013, dated 2017).
# B1: Olfr78: murine olfactory receptor, Flag-tagged construct with or without Rho and Lucy tags (protein, UniProt Q8VBV9 1-320, looked up)
# Olfactory receptor 51E2: MSSCNFTHATFLLIGIPGLEEAHFWFGFPLLSMYAVALFGNCIVVFIVRTERSLHAPMYLFLCMLAAIDLALSTSTMPKILALFWFDSREITFDACLAQMFFIHTLSAIESTILLAMAFDRYVAICHPLRHAAVLNNTVTVQIGMVALVRGSLFFFPLPLLIKRLAFCHSNVLSHSYCVHQDVMKLAYTDTLPNVVYGLTAILLVMGVDVMFISLSYFLIIRTVLQLPSKSERAKAFGTCVSHISVVLAFYVPLIGLSVVHRFGNSLDPIVHVLMGDVYLLLPPVINPIIYGAKTKQIRTRVLAMFKISCDKDIEAGGNT
# modifications: Flag tag; optional Rho and Lucy tags
# B2: hOR51E2: human olfactory receptor, Flag-tagged construct with or without Rho and Lucy tags (protein, UniProt Q9H255 1-320, looked up)
# Olfactory receptor 51E2: MSSCNFTHATFVLIGIPGLEKAHFWVGFPLLSMYVVAMFGNCIVVFIVRTERSLHAPMYLFLCMLAAIDLALSTSTMPKILALFWFDSREISFEACLTQMFFIHALSAIESTILLAMAFDRYVAICHPLRHAAVLNNTVTAQIGIVAVVRGSLFFFPLPLLIKRLAFCHSNVLSHSYCVHQDVMKLAYADTLPNVVYGLTAILLVMGVDVMFISLSYFLIIRTVLQLPSKSERAKAFGTCVSHIGVVLAFYVPLIGLSVVHRFGNSLHPIVRVVMGDIYLLLPPVINPIIYGAKTKQIRTRVLAMFKISCDKDLQAVGGK
# modifications: Flag tag; optional Rho and Lucy tags
# B3: hOR52B2: human homologue of Olfr691, Flag-tagged construct with or without Rho and Lucy tags (protein, UniProt Q96RD2 1-323, looked up)
# Olfactory receptor 52B2: MSHTNVTIFHPAVFVLPGIPGLEAYHIWLSIPLCLIYITAVLGNSILIVVIVMERNLHVPMYFFLSMLAVMDILLSTTTVPKALAIFWLQAHNIAFDACVTQGFFVHMMFVGESAILLAMAFDRFVAICAPLRYTTVLTWPVVGRIALAVITRSFCIIFPVIFLLKRLPFCLTNIVPHSYCEHIGVARLACADITVNIWYGFSVPIVMVILDVILIAVSYSLILRAVFRLPSQDARHKALSTCGSHLCVILMFYVPSFFTLLTHHFGRNIPQHVHILLANLYVAVPPMLNPIVYGVKTKQIREGVAHRFFDIKTWCCTSPLGS
# modifications: Flag tag; optional Rho and Lucy tags
# Test system: HEK293T cells
# Test: Surface immunofluorescence of Flag-tagged olfactory receptors (OR trafficking)
# Type: cell-based
# Parameters: key: −: No detectable OR surface expression; +: OR surface expression detected in the majority of fields of view (>90% of all fields of view); *: OR surface expression detected in a minority of fields of view (<50% of all fields of view)
# Conditions: Lucy-OR construct, chaperones: None
row,Molecule,OR surface expression
1,B1,+ (OR surface expression detected in the majority of fields of view (>90% of all fields of view))
2,B2,+ (OR surface expression detected in the majority of fields of view (>90% of all fields of view))
3,B3,+ (OR surface expression detected in the majority of fields of view (>90% of all fields of view))

# Same assay, conditions: Lucy-OR construct, chaperones: RTP1S, Ric8b, Gαolf
row,Molecule,OR surface expression
1,B1,+ (OR surface expression detected in the majority of fields of view (>90% of all fields of view))
2,B2,+ (OR surface expression detected in the majority of fields of view (>90% of all fields of view))
3,B3,+ (OR surface expression detected in the majority of fields of view (>90% of all fields of view))

# Same assay, conditions: Lucy-Rho-OR construct, chaperones: None
row,Molecule,OR surface expression
1,B1,+ (OR surface expression detected in the majority of fields of view (>90% of all fields of view))
2,B2,+ (OR surface expression detected in the majority of fields of view (>90% of all fields of view))
3,B3,+ (OR surface expression detected in the majority of fields of view (>90% of all fields of view))

# Same assay, conditions: Lucy-Rho-OR construct, chaperones: RTP1S, Ric8b, Gαolf
row,Molecule,OR surface expression
1,B1,+ (OR surface expression detected in the majority of fields of view (>90% of all fields of view))
2,B2,+ (OR surface expression detected in the majority of fields of view (>90% of all fields of view))
3,B3,+ (OR surface expression detected in the majority of fields of view (>90% of all fields of view))

# Same assay, conditions: OR construct (Flag tag only), chaperones: RTP1S, Ric8b, Gαolf
row,Molecule,OR surface expression
1,B1,+ (OR surface expression detected in the majority of fields of view (>90% of all fields of view))
2,B2,+ (OR surface expression detected in the majority of fields of view (>90% of all fields of view))
3,B3,−

# Same assay, conditions: OR construct (Flag tag only, no Rho or Lucy tag), chaperones: None
row,Molecule,OR surface expression
1,B1,+ (OR surface expression detected in the majority of fields of view (>90% of all fields of view))
2,B2,+ (OR surface expression detected in the majority of fields of view (>90% of all fields of view))
3,B3,−

# Same assay, conditions: Rho-OR construct, chaperones: None
row,Molecule,OR surface expression
1,B1,+ (OR surface expression detected in the majority of fields of view (>90% of all fields of view))
2,B2,+ (OR surface expression detected in the majority of fields of view (>90% of all fields of view))
3,B3,−

# Same assay, conditions: Rho-OR construct, chaperones: RTP1S, Ric8b, Gαolf
row,Molecule,OR surface expression
1,B1,+ (OR surface expression detected in the majority of fields of view (>90% of all fields of view))
2,B2,+ (OR surface expression detected in the majority of fields of view (>90% of all fields of view))
3,B3,−
